Test system: NAT and CRC tissue samples
Assay: Relative quantification of MAPs by TMT SPS-MS3 with spiked synthetic peptides, CRC vs matched NAT
Design: species or system human
Details: for Endogenous sample ratio: CRC vs matched NAT; for SPS-MS3 ratio (127N/126): TMT127N (CRC) / TMT126 (NAT)
Method: TMT labeling. MAP extracts were resuspended in 200 mM Hepes buffer pH 8.1. 50 μg of TMT reagent (Thermo Fisher Scientific) in anhydrous acetonitrile was added to samples as follows: CRC cell line replicates were labeled with TMT6plex (lot #UG287166) channels TMT6-126-129; Tissue samples were labeled with TMT10plex (lot #UH285228) −126 (NAT) and −127N (tumor). Samples were gently vortexed and reacted at room temperature for 1.5 hours. Samples were then quenched with 50% hydroxylamine for 30 minutes at room temperature, then were diluted with 4% FA/H2O. CRC cell line replicates and individual NAT-tumor pairs were combined. Samples were then desalted on homemade C18 membrane (Empore) columns and stored at −20° C. until injection. To quantify MAPs of interest in primary tissue samples, synthetic peptides at concentrations of 0.75 to 192 fmoles were labeled with TMT 10plex channels −128N, −128C, −129N, −129C, −130N, −130C, −131, while the NAT and CRC tissues were labeled with −126 and 127N, respectively. Note that the channel −127C was left empty to assess contamination between channels.
Relative quantification. To relatively quantify MAPs of interest in primary tissue samples, synthetic peptides at concentrations of 10, 100, or 1000 fmol labeled with TMT 10plex-129N, 130N, and 131N, respectively, were spiked into remaining purified MAPs from NAT and CRC tissue samples labeled with TMT10plex-126 and 127N, respectively. Note that the channel TMT 10plex-127C was left empty to assess contamination. Samples were analyzed with an Orbitrap Fusion Tribrid spectrometer (Thermo Fisher Scientific) in positive ion mode with Nanoflex source at 2.4 kV. For synchronous precursor selection MS3 (SPS-MS3), full MS scans were acquired with a range of 300-1000 m/z, Orbitrap resolution of 120 000, automatic gain control (AGC) of 5.0e5, and a maximum injection time of 50 ms, using an inclusion list for the peptides of interest. A 3s top speed approach for MS2 was used in the ion trap, with an isolation window of 0.4m/z, collision induced dissociation of 35%, a ‘normal’ ion trap scan rate mode, 2.0e4 AGC target, and 50 ms maximum injection time. This was followed by the selection of eight synchronous precursor ions for MS3 acquisition, which was done with a scan range of 110-500 m/z, Orbitrap resolution of 50 000, AGC of 1.0e5, maximum injection time of 300 ms, an isolation window of 2.0m/z, and 65% HCD collision energy. LC-MS instrument was controlled using Xcalibur version 4.4 (Thermo Fisher Scientific, Inc). Error tolerances for precursor mass and fragment ions were set to 10.0 ppm and 0.5 Da, respectively. A non-specific digest mode was used. TMT10plex was set as a fixed PTM, and variable modifications included phosphorylation (STY), Oxidation (M), Deamidation (NQ), and TMT10plex STY. For quantification, PSMs were filtered to exclude those with contamination in the TMT10plex-127C channel, and to select those within the 70th intensity percentile. MS2 precursor profiles and intensity profiles of all relevant channels were manually inspected to select peptides for quantification. Intensity ratios for each peptide were calculated using the average TMT10plex-127N and TMT10plex-126 intensities of good quality PSMs.
Experimental Design and Statistical Rationale. To effectively elucidate the MHC I immunopeptidome of colorectal cancer, 4 CRC cell lines were selected and 6 samples from human subjects consisting of both matched tumor and normal adjacent tissue (NAT) were acquired. […] Since no matched samples were available for cell lines, a pool of 6 mTEC samples was used in the creation of global cancer databases, to obtain a wide berth of approximate normal RNA expression. […] For t-tests, f-tests were performed to determine whether the dataset had significant variation; if yes, then the t-test assuming variation was used, and otherwise the t-test assuming no variation was used. […]

“SIIETVNSL (listed as Homo sapiens) [aeTSA, IPP intron, S2; predicted HLA-A*02:01]” showed an Endogenous sample ratio (sample S2) of 0.288.
“AQYDQASTKY (listed as Homo sapiens) [TAA, CENPF exon, S4; predicted HLA-B*15:01]” gave an Endogenous sample ratio (sample S4) of 1.452.
For “KIGEVIVTK (listed as Homo sapiens) [mTSA, HSPD1 exon, S2; predicted HLA-A*03:02]”, the Endogenous sample ratio (sample S2) was 2.506 and the “SPS-MS3 ratio (127N/126)” value (sample S2) was 13.637.
“KSINEFWNK (listed as Homo sapiens) [TAA, SPC25 exon, S2; predicted HLA-A*03:02]” was tested, and the Endogenous sample ratio (sample S2) was 2.212 and the “SPS-MS3 ratio (127N/126)” value (sample S2) was 5.238.
“AQKLQVRI [aeTSA, intergenic, S5; predicted HLA-B*52:01]” was tested, and the Endogenous sample ratio (sample S5) was 0.793.
For “TYKYVDINTF (listed as Homo sapiens) [TAA, MMP12 exon, S1; predicted HLA-A*24:02]”, the Endogenous sample ratio (sample S1) was 1.969 and the “SPS-MS3 ratio (127N/126)” value (sample S1) was 8.226.
“VQTAVLNV (listed as Homo sapiens) [aeTSA, intergenic, S5; predicted HLA-B*52:01]” was tested, and the Endogenous sample ratio (sample S5) was 1.089.
Sequence “GQIELSIYR [aeTSA, PATJ intron, S5; predicted HLA-A*03:01]” has an Endogenous sample ratio (sample S5) of 0.328.
“RNRQVATAL (listed as Homo sapiens) [aeTSA, SUCNR1 exon, S6; predicted HLA-B*07:02; previously reported in US2022/0002374]” was tested, and the Endogenous sample ratio (sample S1) was 0.890, the “SPS-MS3 ratio (127N/126)” value (sample S1) was 3.507 and the Endogenous sample ratio (sample S6) was 1.090. For the same sequence, the “SPS-MS3 ratio (127N/126)” value (sample S6) was 5.722.
For “SANVSKVSF (listed as Homo sapiens) [TAA, ASPM exon, S5; predicted HLA-C*12:02]”, the Endogenous sample ratio (sample S5) was 1.114 and the “SPS-MS3 ratio (127N/126)” value (sample S5) was 2.321.
In the case of “QMAGLRDTY (listed as Homo sapiens) [TAA, SPC25 exon, S3; predicted HLA-A*01:01]”, the Endogenous sample ratio (sample S3) is reported as 1.140 and the “SPS-MS3 ratio (127N/126)” value (sample S3) is reported as 2.884.
“SLYISEERK [aeTSA, TRPC6 lncRNA, S5; predicted HLA-A*03:01]” was tested, and the Endogenous sample ratio (sample S5) was 0.046.
With “RYLEKFYGL (listed as Homo sapiens) [TAA, MMP12 exon, S1, S6; predicted HLA-A*24:02, HLA-A*23:01]” the “abundance in tumor compared to NAT” value (S1 tumor) was “overexpressed”, the Endogenous sample ratio (sample S1) was 2.840 and the “SPS-MS3 ratio (127N/126)” value (sample S1) was 7.661. The Endogenous sample ratio (sample S6) was 2.970 and the “SPS-MS3 ratio (127N/126)” value (sample S6) was 16.090.
For “SVSHLHIFF (listed as Homo sapiens) [aeTSA, intergenic, S3; predicted HLA-A*32:01]”, the Endogenous sample ratio (sample S3) was −1.100.
For “HGALSIRSI [aeTSA, intron, S5; predicted HLA-B*52:01]”, the Endogenous sample ratio (sample S5) was 0.777.
In the case of “GTNPTAAVK (listed as Homo sapiens) [aeTSA, HKDC1 exon, S2; predicted HLA-A*03:02]”, the Endogenous sample ratio (sample S2) is reported as 2.095 and the “SPS-MS3 ratio (127N/126)” value (sample S2) is reported as 12.174.
“RLMKFLPV [aeTSA, intergenic, S5; predicted HLA-B*13:02]” was tested, and the Endogenous sample ratio (sample S5) was 0.171.
For “VLYRSVLLLK (listed as Homo sapiens) [ncTAA, FANCA intron, S6; predicted HLA-A*03:01]”, the Endogenous sample ratio (sample S6) was 0.997.
“TRSTIILHL (listed as Homo sapiens) [mTSA, PLK1 exon, S3; predicted HLA-C*06:02]” was tested, and the Endogenous sample ratio (sample S3) was 1.381 and the “SPS-MS3 ratio (127N/126)” value (sample S3) was 48.807.
“TTLENLPQK (listed as Homo sapiens) [aeTSA, COL11A1 exon frameshift, S4; predicted HLA-A*11:01]” was tested, and the Endogenous sample ratio (sample S4) was 0.134 and the “SPS-MS3 ratio (127N/126)” value (sample S4) was 3.783.
For “FVDNQYWRY (listed as Homo sapiens) [TAA, MMP12 exon, S4; predicted HLA-A*01:01]”, the Endogenous sample ratio (sample S4) was 0.721 and the “SPS-MS3 ratio (127N/126)” value (sample S4) was 10.954.
“TVNTQQYNTK (listed as Homo sapiens) [aeTSA, CYP39A1 intron, S2; predicted HLA-A*03:02]” gave an Endogenous sample ratio (sample S2) of −0.021.
“LPHRALSGI (listed as Homo sapiens) [aeTSA, NKD1 intron, S1; predicted HLA-B*07:02]” gave an Endogenous sample ratio (sample S1) of −0.364.
“VEAPHLPSF (listed as Homo sapiens) [aeTSA, COL11A1 5' UTR, S6; predicted HLA-B*18:01; previously reported in WO2020/131586]” was tested, and the Endogenous sample ratio (sample S6) was 1.059 and the “SPS-MS3 ratio (127N/126)” value (sample S6) was 41.318.
In the case of “RIQLPVVSK (listed as Homo sapiens) [TAA, MKI67 exon, S2, S4; predicted HLA-A*03:02, HLA-A*11:01]”, the Endogenous sample ratio (sample S4) is reported as 1.083 and the “SPS-MS3 ratio (127N/126)” value (sample S4) is reported as 2.073.
In the case of “LRHKLVLNR (listed as Homo sapiens) [aeTSA, GRIN2B 3' UTR, S2; predicted HLA-B*27:05]”, the Endogenous sample ratio (sample S2) is reported as 0.307.

From US20250136937A1, “NOVEL TUMOR-SPECIFIC ANTIGENS FOR COLORECTAL CANCER AND USES THEREOF” (UNIVERSITÉ DE MONTRÉAL, priority 2021, published 2025)
